In patent publication JP2022142155A:
Results are given in words; binding and its absence hold for the method and conditions named. Some results given as binding are weak or reduced against the parent protein; the word gives no strength.

Chains of the proteins cited; added tags and fusions are not shown. Residues count along the entry.
UniProt P02769, residues 25-607: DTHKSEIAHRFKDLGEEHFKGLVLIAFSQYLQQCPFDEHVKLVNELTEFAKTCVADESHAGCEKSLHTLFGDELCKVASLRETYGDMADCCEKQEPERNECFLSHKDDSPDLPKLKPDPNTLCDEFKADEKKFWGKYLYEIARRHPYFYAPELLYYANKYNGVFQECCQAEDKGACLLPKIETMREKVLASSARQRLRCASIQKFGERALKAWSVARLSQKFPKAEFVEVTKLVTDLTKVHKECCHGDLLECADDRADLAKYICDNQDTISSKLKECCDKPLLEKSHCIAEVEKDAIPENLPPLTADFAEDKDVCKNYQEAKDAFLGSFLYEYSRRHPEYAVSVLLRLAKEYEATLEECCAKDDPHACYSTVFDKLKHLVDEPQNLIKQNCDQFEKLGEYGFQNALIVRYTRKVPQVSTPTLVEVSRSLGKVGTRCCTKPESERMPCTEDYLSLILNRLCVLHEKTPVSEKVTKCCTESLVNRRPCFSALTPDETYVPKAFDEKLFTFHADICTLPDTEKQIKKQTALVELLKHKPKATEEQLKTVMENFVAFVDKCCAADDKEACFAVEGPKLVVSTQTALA

B1: 配列番号:37により表されるアミノ酸配列を含む抗HSA抗体 (VHH, not shown: small tags and cut ends)
VHH: EVQLVESGGGLVHPGGSLRLSCVASGSDVSSDTMGWFRRAPGKQRELVAAIAWGGSTHYAESVKGRFTISRDNAKNTVYLQLSNLKPEDTAVYLCNTRNYWGQGTQVTVSS
B2: 配列番号:40により表されるアミノ酸配列を含む抗HSA抗体 (VHH, not shown: small tags and cut ends)
VHH: QVQLVESGGGLVQAGKSLRLSCTASGSIPSIGVTGWHRQAPGKQRELVATISQGGHINYFESVKGRFTISRDNAKNTVYLQMNSLKPEDTGVYYCNAFWLPLRLNDYWGQGTQVTVSS
B3: 配列番号:38により表されるアミノ酸配列を含む抗HSA抗体 (VHH, not shown: small tags and cut ends)
VHH: QVQLVESGGGLVQTGGSLRLSCAASGRIVTVAAMGWFRQAPGKEREFVASISWSGRSRSYADSVKGRFTISRDNAKNTAYLQMSSLKPEDTGVYYCALGGNSYSSDYARYDYWGQGTQVTVSS

Target: ウシ血清アルブミン (bovine) (UniProt P02769)
Assay: ELISA, albumin coated, anti-His-HRP detection, A450

| binding | Binder |
| --- | --- |
| binds | B1 |
| binds | B2 |
| binds | B3 |
